{"source": "paper doi:10.1101/748145", "about": "(bioRxiv, 2019)", "binders": {"B1": {"name": "LetB MCE2-MCE3 domains (residues 159-383) (domain or fragment, UniProt P76272 159-383)", "chain": "GDLMIHLQAPDLGSLNSGSLVYFRKIPVGKVYDYAINPNKQGVVIDVLIERRFTDLVKKGSRFWNVSGVDANVSISGAKVKLESLAALVNGAIAFDSPEESKPAEAEDTFGLYEDLAHSQRGVIIKLELPSGAGLTADSTPLMYQGLEVGQLTKLDLNPGGKVTGEMTVDPSVVTLLRENTRIELRNPKLSLSDANLSALLTGKTFELVPGDGEPRKEFVVVPGE"}}, "biological_target": "LetB MCE2-MCE3 domains (residues 159-383) (E. coli) (UniProt P76272)", "experiment": "crystal structure", "note": "Results are given in words; binding and its absence hold for the method and conditions named."}
{"binder": "B1", "values": [{"measurement": "binding", "value": "no binding"}]}
